# PubChem BioAssay AID1347076 (National Center for Advancing Translational Sciences (NCATS), 2019)
# Among all 400,000 compounds or so, about 13,000 (3.2%) were called active. The inconclusive results got no clear call from the source; some entries with a clear call stand among them for comparison. The call rests on the fitted dose curve; in most records, active means well fitted cell-killing curve with a large enough effect; inconclusive means small, poorly fitted or top-dose-only effect, or effect the other way; inactive means flat fitted curve, though single readings scatter. Potencies of inconclusive entries are doubtful fits and often do not repeat.
# Experiment: qHTS assay for MDR1-selective chemotherapeutics: Primary screen using the drug-selected MDR subline cells KB-V1; further: nearly all actives have a fitted effect of over 60% in size
# Conditions: KB-V1 MDR cells viability, CellTiter-Glo, 72 h; activity change, negative = cytotoxicity: at 46.1 µM (top of the series)
# Outline: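 Cytotoxicity via CellTiter-Glo luminescence after 72 h compound exposure at 37 degrees C. Cells: drug-selected KB-V1 line, DMEM phenol-red free plus 10% FBS. Compounds tested at multiple concentrations; normalized data fitted to concentration-effect curves.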
# On the % scale 0 is the no-effect control and ±100 the full control effect; potency means the concentration at half of the fitted maximal effect.
Compound,Potency,"activity change, negative = cytotoxicity"
COCCn1c(SCC(=O)NN2C(=O)NC(C)(c3ccccc3)C2=O)nnc1-c1ccncc1 (stereo unspecified),"inconclusive: 32.6 µM [cytotoxic, single point]",–
CCCN1CCN(CCCNC(=S)Nc2ccc(F)cc2)CC1,"inconclusive: 32.6 µM [rising, single point]",–
Cc1cc(SCNC(=O)c2ccccc2)nc(C(C)C)n1,–,inactive: -3.29%
CCCS(=O)(=O)c1nc(S(=O)(=O)c2ccc(C)cc2)c(N2CC(C)OC(C)C2)s1 (stereo unspecified),"inconclusive: 20.6 µM [cytotoxic, partial curve, poor fit]",–
Cc1ccc2nc(-c3ccc(Cl)cc3)c(Cc3cccc(Cl)c3)n2c1,"inconclusive: 29.1 µM [cytotoxic, single point]",–
CN(CCO)c1ccc2c(c1)OC[C@@H](Cc1ccccc1)NS2(=O)=O,"inconclusive: 29.1 µM [rising, single point]",–
O=C(Nc1ccccc1)c1cnc(-c2ccccc2)nc1-c1ccccc1,active: 10.3 µM,–
Cc1ccc(S(=O)(=O)NC(=O)Nc2cccc(S(=O)(=O)N(C)C)c2)cc1,–,inactive: -5.27%
CCN(CC)C(=O)c1cc2cc([N+](=O)[O-])ccc2s1,"inconclusive: 32.6 µM [cytotoxic, single point]",–
N#CC1=C(N)NC(SCC(=O)c2ccc(Br)cc2)=C(C#N)C12CCCCC2,active: 16.4 µM,–
O=C(/C=C/c1ccc(S(=O)(=O)N2CCOCC2)cc1)NCc1ccc(Cl)cc1,–,inactive: -4.35%
O=C(CC1C(=O)NCCN1CC1CCCCC1)NCc1ccc(F)cc1F (stereo unspecified),–,inactive: -1.93%
O=C(NC1c2ccccc2-c2ccccc21)N1CCCCC1,active: 16.4 µM,–
C[C@H](CO)N1C[C@H](C)[C@H](CN(C)S(=O)(=O)c2ccccc2)Oc2ccc(NC(=O)NC3CCCCC3)cc2CC1=O,–,inactive: 5.22%
COc1ccc(-c2ccc(C3C(C#N)=C(N)Oc4n[nH]c(C)c43)o2)cc1 (stereo unspecified),–,inactive: -21.8%
CC(C)(C)c1ccc(OCC(=O)Nc2ccc(C(=O)OC3CCCCC3)cc2)cc1,–,inactive: 19.4%
CCc1ccccc1NC(=O)c1oc(=O)c2ccccc2c1-c1ccccc1,"inconclusive: 29.1 µM [cytotoxic, single point]",–
O=C(Nc1ncccc1O)c1c(O)c2ccccc2[nH]c1=O,"inconclusive: 10.3 µM [cytotoxic, partial curve, poor fit]",–

# Grouped by structure, the entries above with an NH in an aromatic ring.
Compound,Potency,"activity change, negative = cytotoxicity"
COc1ccc(-c2ccc(C3C(C#N)=C(N)Oc4n[nH]c(C)c43)o2)cc1 (stereo unspecified),–,inactive: -21.8%
O=C(Nc1ncccc1O)c1c(O)c2ccccc2[nH]c1=O,"inconclusive: 10.3 µM [cytotoxic, partial curve, poor fit]",–

# Later entries:

Compound,Potency,"activity change, negative = cytotoxicity"
COc1cc(OC)cc(C(=O)N[C@H](C(=O)OCC(=O)NC(C)c2ccccc2)C(C)C)c1 (stereo partly specified),active: 23.1 µM,–
COc1ccc(CCN2C(=O)COc3ccccc3C2C(=O)Nc2c(C)cccc2C)cc1OC (stereo unspecified),–,inactive: -2.86%
CC(C)Cn1nc(NC(=O)c2cccc(Cl)c2)c2cc3ccccc3nc21,"inconclusive: 9.2 µM [cytotoxic, partial curve]",–
O=C(NCc1ccccc1)C(c1ccccc1)n1c(-c2ccncc2)nc2ccccc21 (stereo unspecified),"inconclusive: 8.2 µM [cytotoxic, partial curve]",–
COc1ccc(C(=O)NCc2nnc(SCC(=O)Nc3ccccc3OC)o2)cc1,"inconclusive: 8.2 µM [rising, partial curve, poor fit]",–
COCCn1c(Cc2ccccc2)nnc1SCc1nc2ccccc2c(=O)[nH]1,"inconclusive: 18.4 µM [cytotoxic, single point]",–
O=C(/C=C\c1ccco1)NC(=S)Nc1ccccc1O,"inconclusive: 32.6 µM [cytotoxic, partial curve, poor fit]",–
O=C(NCc1ccc(N2CCCC2=O)cc1)c1cc(COc2c(F)cccc2F)on1,"inconclusive: 20.6 µM [cytotoxic, partial curve, poor fit]",–
CCOC(=O)c1c(C)oc2c1c(C(c1cccnc1)N1CCOCC1)c(O)c1ccccc12 (stereo unspecified),"inconclusive: 29.1 µM [cytotoxic, single point]",–
CCOc1ccccc1NC(=O)c1cc(-c2ccncc2)nc2c(Cl)cccc12,"inconclusive: 5.17 µM [cytotoxic, full curve]",–
COCCn1nnnc1C(c1ccccn1)N1CCN(c2cc(C)ccc2C)CC1 (stereo unspecified),"inconclusive: 11.6 µM [cytotoxic, partial curve]",–
CCOc1ccccc1NC(=O)Cn1nnc(C(=O)NCc2cccs2)c1N,active: 0.58 µM,–
COCCC(=O)N1CCCC(CNS(=O)(=O)c2ccc(OC)cc2)C1 (stereo unspecified),"inconclusive: 29.1 µM [rising, single point]",–
Cc1cc(=O)oc2cc(NC(=O)C3CC(=O)N(Cc4ccccc4)C3)ccc12 (stereo unspecified),"inconclusive: 14.6 µM [rising, partial curve, poor fit]",–
CCOC(=O)c1cc(OC(=O)c2ccccc2F)n(-c2ccccc2)n1,–,inactive: 1.9%
O=C(NCc1ccccc1)c1ccc(C(=O)N(C2CCCCC2)C2CCCCC2)cc1,active: 23.1 µM,–
O=C(OCCOc1ccccc1)c1cccc(S(=O)(=O)N2CCOCC2)c1,active: 18.4 µM,–
CCOc1c(Br)cc(C2C=C(C(=O)O)Nc3ncnn32)cc1OC (stereo unspecified),"inconclusive: 10.3 µM [rising, partial curve, poor fit]",–
